## Screening data

Source: PubChem BioAssay AID912 (NCATS, 2007).

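Uptake of anthrax lethal toxin into cultured cells, read by FRET (460/530 nm ratio) and reported from the 460 nm channel; the cell line is not named here.
Each compound was tested as a concentration series from about 0.0005 to 40 µM.
The number is the fitted AC50 of the 460 nm signal alone; lower values mean a more potent effect. A falling signal goes with compounds filed as inhibitors or cytotoxic, a rising one with activators or fluorescent compounds (inferred from the filed classes).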

Values are in nM.
Common to all entries: measured here: 460 nm channel.
This is a side read-out of the assay, for part of the compounds, not drawn at random.
A potency from a partial, single-point or poor curve is only a rough figure.
The first word of each remark tells which way the curve ran; it can be opposite to the aim of the assay.

SMILES,AC50 (nM),curve as filed
C=CC(=O)c1ccc2ccccc2c1,5012,"falling, single point"
Cc1nnc(SCC(=O)Nn2cnnc2)s1,63.1,"falling, full curve, poor fit"
N=c1c(C(=O)NCc2ccccc2)cc2c(=O)n3ccccc3nc2n1CCCN1CCOCC1,12589,"rising, partial curve"
COc1ccc(NC(=O)c2ccc(-c3ccc(-c4noc(C)n4)cc3C)cc2)cc1N1CCN(C)CC1,10000,"falling, full curve"
COc1ccc(-c2nsc3c(N4CCN(C(=O)c5ccco5)CC4)ncnc23)cc1,25.12,"falling, full curve, poor fit"
CC(c1ccccc1)C1C(C#N)=C(N)OC2=C1C(=O)CC(C)(C)C2 (stereo not drawn),794.3,"rising, partial curve"
O=c1cc(-c2ccccc2)nc2n1Cc1ccccc1-2,251.2,"falling, full curve, poor fit"
C=CCn1c(SCC(=O)Nc2ccc3c(c2)OCO3)nnc1-c1ccccc1OC,31622,"rising, single point"
COC(=O)c1ccc2c(=O)n(CCN3CCOCC3)c(SCC(=O)NC3CCCCC3)nc2c1,25.12,"rising, full curve, poor fit"
CN1CCN(c2ncc3nc(-c4cc(F)cc(F)c4)c(=O)n(Cc4cccs4)c3n2)CC1,1585,"rising, full curve"
Cc1cc(S(=O)(=O)N2CCN(c3c(C)cccc3C)CC2)ccc1F,3162,"falling, partial curve"
O=c1c(-c2ccc(Cl)cc2)nc2cnc(N3CCOCC3)nc2n1C[C@H]1CCCO1,12589,"rising, partial curve"
O=C(CN1C(=O)c2ccccc2S1(=O)=O)NCc1ccccn1,7943,"falling, partial curve"
O=C(COC(=O)c1ccc(S(=O)(=O)N2CCOCC2)cc1)NC1CCCC1,25118,"rising, single point"
COc1ccc(-c2nc(NC(=O)c3cc(C(C)(C)C)nn3C)sc2C)cc1,12589,"falling, partial curve"
CC(=O)c1c(C)[nH]c(C(=O)CSc2nnc(-c3ccco3)n2Cc2ccccc2)c1C,1000,"rising, partial curve, poor fit"
O=C(CCc1ccc(O)cc1)c1c(O)cc(O)cc1O,6310,"falling, full curve, poor fit"
Nc1nc(-c2ccco2)c(-c2ccco2)s1,10000,"falling, partial curve"
CCC(=O)O[C@H](CC(=O)O)C[N+](C)(C)C,12589,"falling, single point"
Cc1ccccc1-c1cc(-c2ccccc2O)n[nH]1,12589,"falling, partial curve"
O=C1C(=O)c2ccccc2C(O)=C1C(C1=C(O)c2ccccc2C(=O)C1=O)c1ccc(Cl)cc1,5012,"falling, single point"
COc1nc(-c2ccc(C)cc2)ccc1-c1noc(-c2cccnc2)n1,12589,"falling, partial curve, poor fit"
CCOC(=O)CC(=O)CSc1nc2ccc(C)cc2cc1C#N,31622,"rising, single point"
COc1ccccc1CN1CCC2(CC1)CCN(C(=O)c1cccc(F)c1)CC2,10000,"falling, partial curve"
CCN(CC)CCNC(=O)c1ccc2c(=O)n(CCc3ccccc3)c(=O)[nH]c2c1,501.2,"falling, full curve, poor fit"
CCCOC(=O)c1c(-c2ccccc2)nc(CC)c(C(=O)SCC)c1CCC,7943,"falling, full curve"
O=C1NC(=O)C(c2ccccc2)(c2ccccc2)N1,31622,"falling, single point"
CCNc1cccc2c1C(=O)N(C)C2=O,10000,"rising, partial curve"
COc1ccc(CNC(=O)C(c2cccs2)N(C(=O)c2csnn2)C2CC2)cc1 (stereo not drawn),7943,"falling, partial curve"
N#Cc1ccc(CSc2nnc(-c3ccccn3)n2-c2ccc(Cl)cc2)cc1,5012,"rising, full curve, poor fit"
COc1cccc(Cn2c(=O)c(-c3cccs3)nc3cnc(N(C)C)nc32)c1,398.1,"rising, full curve, poor fit"
O=C1c2ccccc2C(Nc2ccc(S(=O)(=O)N3CCCCCC3)cc2)N1Cc1ccco1 (stereo not drawn),5012,"rising, single point"
O=C(c1cc2c(s1)-c1ccccc1OC2)N1CCN(c2ccccn2)CC1,15848,"falling, single point"
O=C(Nc1ccc(OC(=O)c2cccs2)cc1)c1ccco1,5012,"falling, single point"
Cn1c(=O)[nH]c(=O)c2[nH]c(N(Cc3ccccc3)Cc3ccccc3)nc21,12589,"falling, partial curve"
CCC(=O)[C@]12O[C@@]3(C4C(=O)OCCC41)N(CC)C(C)=C(C(=O)OC)C(c1ccccc1)N3C2=O (stereo partly drawn),5012,"falling, single point"
C#CCN(C#N)c1nc(NCC)nc(NC(C)C)n1,12589,"falling, partial curve, poor fit"
CC(C)NC(C)C,31622,"falling, single point"
Cc1ccc(S(=O)(=O)N2CCCC2C(=O)Nc2nc3ccccc3s2)cc1 (stereo not drawn),12589,"falling, partial curve"
Cn1ncc2c(Nc3ccc(-c4ccccc4)cc3)ncnc21,31622,"falling, single point"
O=C(O)c1ccc2c3c1cccc3c(=O)n1c3ccccc3nc21,31622,"falling, single point"

Some entries from above, unchanged:

| SMILES | AC50 (nM) | curve as filed |
|---|---|---|
| `O=c1cc(-c2ccccc2)nc2n1Cc1ccccc1-2` | 251.2 | falling, full curve, poor fit |
| `O=C(c1cc2c(s1)-c1ccccc1OC2)N1CCN(c2ccccn2)CC1` | 15848 | falling, single point |
| `Cn1ncc2c(Nc3ccc(-c4ccccc4)cc3)ncnc21` | 31622 | falling, single point |